According to ChEMBL document CHEMBL6071153, “Design, synthesis, and evaluation of antitumor activity in Pseudolaric acid B Azole derivatives: Novel and potent angiogenesis inhibitor via regulation of the PI3K/AKT and MAPK mediated HIF-1/VEGF signaling pathway” (Eur J Med Chem, 2024):

System: MDA-MB-231
Assay: Cytotoxicity against human MDA-MB-231 cells assessed as inhibition of cell growth incubated for 96 hrs under hypoxic condition by MTT assay
Type: functional, cell-based
Details: MDA-MB-231, 96 h

COc1cccc2c1C(=O)c1c(O)c3c(c(O)c1C2=O)C[C@@](O)(C(=O)CO)C[C@@H]3O[C@H]1C[C@H](N)[C@H](O)[C@H](C)O1 [DOXORUBICIN]
IC50: 600 nM
